In patent US20120329784A1, “COMPOUNDS AND METHODS” (priority 2010, published 2012):
Counter-ions that a name gives are not always drawn. Some entries share one result that the patent states for a list of compounds.

Biological target: T1, Full length human TNNI3K (hTNNI3K) (Homo sapiens, UniProt Q59H18)
T1 construct: His-MBP-TEV-Full length human TNNI3K (hTNNI3K); His (N); MBP (N); TEV cleavage site (N); made in house; host or cells: baculovirus expression system (printed 'Baculokinase system')
T1 sequence (Q59H18 1-835): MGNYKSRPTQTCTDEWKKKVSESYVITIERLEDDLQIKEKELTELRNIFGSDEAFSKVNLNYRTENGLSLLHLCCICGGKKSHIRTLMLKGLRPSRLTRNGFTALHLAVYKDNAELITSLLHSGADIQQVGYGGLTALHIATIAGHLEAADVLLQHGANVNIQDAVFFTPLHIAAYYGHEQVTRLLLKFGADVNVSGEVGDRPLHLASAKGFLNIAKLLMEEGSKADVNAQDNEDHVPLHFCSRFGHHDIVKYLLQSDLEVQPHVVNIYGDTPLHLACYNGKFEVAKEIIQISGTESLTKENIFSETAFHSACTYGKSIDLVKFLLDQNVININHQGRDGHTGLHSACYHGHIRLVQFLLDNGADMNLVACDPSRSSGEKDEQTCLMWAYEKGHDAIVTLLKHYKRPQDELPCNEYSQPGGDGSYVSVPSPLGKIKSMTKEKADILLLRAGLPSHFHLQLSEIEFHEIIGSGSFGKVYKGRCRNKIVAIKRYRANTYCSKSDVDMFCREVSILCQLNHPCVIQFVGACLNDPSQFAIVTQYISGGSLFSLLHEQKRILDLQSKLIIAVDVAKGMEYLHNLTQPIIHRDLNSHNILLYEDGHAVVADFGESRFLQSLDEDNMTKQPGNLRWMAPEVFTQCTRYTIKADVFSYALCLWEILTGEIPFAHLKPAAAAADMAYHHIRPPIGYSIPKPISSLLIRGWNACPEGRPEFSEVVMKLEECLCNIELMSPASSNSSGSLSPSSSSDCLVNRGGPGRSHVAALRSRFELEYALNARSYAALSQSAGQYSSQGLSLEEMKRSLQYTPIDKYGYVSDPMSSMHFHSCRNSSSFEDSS
Experiment: Fluorescent polarization assay of compound inhibition on hTNNI3K ATP binding (Biological Assay Method I)
Settings: mean of a minimum of 2 experiments; displacement of fluorescent ligand from hTNNI3K ATP binding pocket; 60 min at rt

pXC50, ≥ 6.0:
CNS(=O)(=O)c1cccc(Nc2cc(Nc3ccc(C(=O)N4CC[C@H](N(C)C)C4)cc3)ncn2)c1 [Example 363, 3-({6-[(4-{[(3S)-3-(dimethylamino)-1-pyrrolidinyl]carbonyl}phenyl)amino]-4-pyrimidinyl}amino)-N-methylbenzenesulfonamide]
CNS(=O)(=O)c1ccc(OC2CCCCC2)c(Nc2cc(Nc3ccc(Cl)cc3)ncn2)c1 [Example 14, 3-({6-[(4-chlorophenyl)amino]-4-pyrimidinyl}amino)-4-(cyclohexyloxy)-N-methylbenzenesulfonamide trifluoroacetate]
CNS(=O)(=O)c1ccc(OCC(F)(F)F)c(Nc2cc(Nc3ncccc3F)ncn2)c1 [Example 293, 3-({6-[(3-fluoro-2-pyridinyl)amino]-4-pyrimidinyl}amino)-N-methyl-4-[(2,2,2-trifluoroethyl)oxy]benzenesulfonamide trifluoroacetate]
CNS(=O)(=O)c1ccc2c(c1)N(c1cc(Nc3ccc(Cl)cn3)ncn1)CC2 [Example 290, 1-{6-[(5-chloro-2-pyridinyl)amino]-4-pyrimidinyl}-N-methyl-2,3-dihydro-1H-indole-6-sulfonamide trifluoroacetate]
CNS(=O)(=O)c1cccc(Nc2cc(Nc3ccc(C4CC4)cc3)ncn2)c1 [Example 233, 3-({6-[(4-cyclopropylphenyl)amino]-4-pyrimidinyl}amino)-N-methylbenzenesulfonamide trifluoroacetate]
CNS(=O)(=O)c1cccc(Nc2cc(Nc3ccc4ncsc4c3)ncn2)c1 [Example 97, 3-{[6-(1,3-benzothiazol-6-ylamino)-4-pyrimidinyl]amino}-N-methylbenzenesulfonamide trifluoroacetate]
CCC(C)c1ccc(Nc2cc(Nc3cccc(S(=O)(=O)NC)c3)ncn2)cc1 (centres unmarked) [Example 239, N-methyl-3-[(6-{[4-(1-methylpropyl)phenyl]amino}-4-pyrimidinyl)amino]benzenesulfonamide trifluoroacetate]
CNS(=O)(=O)c1ccc(SC)c(Nc2cc(Nc3ccc(O)c(Cl)c3)ncn2)c1 [Example 146, 3-[6-(3-chloro-4-hydroxy-phenylamino)-pyrimidin-4-ylamino]-N-methyl-4-methylsulfanyl-benzenesulfonamide trifluoroacetate]
CNS(=O)(=O)c1ccc(SC)c(Nc2cc(Nc3ccc(OC)c(OC)c3)ncn2)c1 [Example 139, 3-[(6-{[3,4-bis(methyloxy)phenyl]amino}-4-pyrimidinyl)amino]-N-methyl-4-(methylthio)benzenesulfonamide]
CCN(CC)c1ccc(S(=O)(=O)NC)cc1Nc1cc(Nc2ccc(Cl)cc2)ncn1.O=C(O)C(F)(F)F [Example 111, 3-({6-[(4-chlorophenyl)amino]-4-pyrimidinyl}amino)-4-(diethylamino)-N-methylbenzenesulfonamide trifluoroacetate]
CNS(=O)(=O)c1ccc(S(C)(=O)=O)c(Nc2cc(Nc3ccc4cc[nH]c4c3)ncn2)c1 [Example 194, 3-(6-(1H-indol-6-ylamino)pyrimidin-4-ylamino)-N-methyl-4-(methylsulfonyl)benzenesulfonamide]
CNS(=O)(=O)c1ccc(S(C)(=O)=O)c(Nc2cc(Nc3ccc(C(F)(F)F)cc3)ncn2)c1 [Example 373]
CNS(=O)(=O)c1ccc(N2CCOCC2)c(Nc2cc(Nc3cccc(C)c3)ncn2)c1 [Example 261, N-methyl-3-({6-[(3-methylphenyl)amino]-4-pyrimidinyl}amino)-4-(4-morpholinyl)benzenesulfonamide trifluoroacetate]
CNS(=O)(=O)c1cccc(Nc2cc(Nc3ccc(C)c(C)c3)ncn2)c1 [Example 208, 3-({6-[(3,4-dimethylphenyl)amino]-4-pyrimidinyl}amino)-N-methylbenzenesulfonamide trifluoroacetate]
CNS(=O)(=O)c1ccc(SC)c(Nc2cc(Nc3cccc(-c4csc(C)n4)c3)ncn2)c1 [Example 153, N-methyl-4-methylsulfanyl-3-{6-[3-(2-methyl-thiazol-4-yl)-phenylamino]-pyrimidin-4-ylamino}-benzenesulfonamide trifluoroacetate]
CNS(=O)(=O)c1ccc(OC)c(Nc2cc(Nc3cccc(F)c3)ncn2)c1 [Example 30, 3-({6-[(3-fluorophenyl)amino]-4-pyrimidinyl}amino)-N-methyl-4-(methyloxy)benzenesulfonamide trifluoroacetate]
CCS(=O)(=O)c1ccc(S(=O)(=O)NC)cc1Nc1cc(Nc2ccc(Cl)cn2)ncn1 [Example 321, 3-({6-[(5-chloro-2-pyridinyl)amino]-4-pyrimidinyl}amino)-4-(ethylsulfonyl)-N-methylbenzenesulfonamide trifluoroacetate]
CNS(=O)(=O)c1ccc2c(c1)N(c1cc(Nc3ccc(F)c(F)c3)ncn1)CC2(C)C [Example 46, 1-{6-[(3,4-difluorophenyl)amino]-4-pyrimidinyl}-N,3,3-trimethyl-2,3-dihydro-1H-indole-6-sulfonamide trifluoroacetate]
CCS(=O)(=O)c1ccc(S(=O)(=O)NC)cc1Nc1cc(Nc2ccc(Cl)cc2)ncn1 [Example 376, 3-(6-(4-chlorophenylamino)pyrimidin-4-ylamino)-4-(ethylsulfonyl)-N-methylbenzenesulfonamide trifluoroacetate]
CNS(=O)(=O)c1cccc(Nc2cc(Nc3ccc(C(C)=O)cc3)ncn2)c1 [Example 69, 3-({6-[(4-acetylphenyl)amino]-4-pyrimidinyl}amino)-N-methylbenzenesulfonamide trifluoroacetate]
CNS(=O)(=O)c1ccc(OC)c(Nc2cc(Nc3ccc(OC)c(Cl)c3)ncn2)c1 [Example 33, 3-[(6-{[3-chloro-4-(methyloxy)phenyl]amino}-4-pyrimidinyl)amino]-N-methyl-4-(methyloxy)benzenesulfonamide trifluoroacetate]
CNS(=O)(=O)c1ccc(OCC(F)(F)F)c(Nc2cc(Nc3ncc(Cl)cc3Cl)ncn2)c1 [Example 48, 3-({6-[(3,5-dichloro-2-pyridinyl)amino]-4-pyrimidinyl}amino)-N-methyl-4-[(2,2,2-trifluoroethyl)oxy]benzenesulfonamide trifluoroacetate]
CNS(=O)(=O)c1ccc(Cl)c(Nc2cc(Nc3ccc(Cl)cn3)ncn2)c1 [Example 304, 4-chloro-3-({6-[(5-chloro-2-pyridinyl)amino]-4-pyrimidinyl}amino)-N-methylbenzenesulfonamide trifluoroacetate]
CNS(=O)(=O)c1cccc(Nc2cc(Nc3ccc(Cl)c(C)c3)ncn2)c1.Cl [Example 90, 3-({6-[(4-chloro-3-methylphenyl)amino]-4-pyrimidinyl}amino)-N-methylbenzenesulfonamide hydrochloride]
CNS(=O)(=O)c1cccc(Nc2cc(Nc3ccc(C(=O)NC4CCN(C)CC4)cc3)ncn2)c1 [Example 355, 4-{[6-({3-[(methylamino)sulfonyl]phenyl}amino)-4-pyrimidinyl]amino}-N-(1-methyl-4-piperidinyl)benzamide]
CNS(=O)(=O)c1cccc(Nc2cc(Nc3ccc(Cl)c(Br)c3)ncn2)c1 [Example 138, 3-({6-[(3-bromo-4-chlorophenyl)amino]-4-pyrimidinyl}amino)-N-methylbenzenesulfonamide]
CNS(=O)(=O)c1ccc(S(C)(=O)=O)c(Nc2cc(Nc3ccc(Cl)cc3)ncn2)c1 [Example 374, 3-({6-[(4-chlorophenyl)amino]-4-pyrimidinyl}amino)-N-methyl-4-(methylsulfonyl)benzenesulfonamide trifluoroacetate]
CNS(=O)(=O)c1cccc(Nc2cc(Nc3ccc4cc[nH]c4c3)ncn2)c1 [Example 92, 3-{[6-(1H-indol-6-ylamino)-4-pyrimidinyl]amino}-N-methylbenzenesulfonamide]
CNS(=O)(=O)c1ccc(OCC(F)(F)F)c(Nc2cc(Nc3cc(Cl)c(Cl)cn3)ncn2)c1 [Example 299, 3-({6-[(4,5-dichloro-2-pyridinyl)amino]-4-pyrimidinyl}amino)-N-methyl-4-[(2,2,2-trifluoroethyl)oxy]benzenesulfonamide trifluoroacetate]
